Biological target: T1, Rb (mouse, UniProt P13405 2-921, phosphorylation state varies by sample; Ser804 (Ser811 in human) hypophosphorylated in β1-/- NPCs)
T1 construct: Endogenous protein from wildtype or β1-/- mouse NPC lysates; also called retinoblastoma protein; pan Rb
T1 sequence (looked up): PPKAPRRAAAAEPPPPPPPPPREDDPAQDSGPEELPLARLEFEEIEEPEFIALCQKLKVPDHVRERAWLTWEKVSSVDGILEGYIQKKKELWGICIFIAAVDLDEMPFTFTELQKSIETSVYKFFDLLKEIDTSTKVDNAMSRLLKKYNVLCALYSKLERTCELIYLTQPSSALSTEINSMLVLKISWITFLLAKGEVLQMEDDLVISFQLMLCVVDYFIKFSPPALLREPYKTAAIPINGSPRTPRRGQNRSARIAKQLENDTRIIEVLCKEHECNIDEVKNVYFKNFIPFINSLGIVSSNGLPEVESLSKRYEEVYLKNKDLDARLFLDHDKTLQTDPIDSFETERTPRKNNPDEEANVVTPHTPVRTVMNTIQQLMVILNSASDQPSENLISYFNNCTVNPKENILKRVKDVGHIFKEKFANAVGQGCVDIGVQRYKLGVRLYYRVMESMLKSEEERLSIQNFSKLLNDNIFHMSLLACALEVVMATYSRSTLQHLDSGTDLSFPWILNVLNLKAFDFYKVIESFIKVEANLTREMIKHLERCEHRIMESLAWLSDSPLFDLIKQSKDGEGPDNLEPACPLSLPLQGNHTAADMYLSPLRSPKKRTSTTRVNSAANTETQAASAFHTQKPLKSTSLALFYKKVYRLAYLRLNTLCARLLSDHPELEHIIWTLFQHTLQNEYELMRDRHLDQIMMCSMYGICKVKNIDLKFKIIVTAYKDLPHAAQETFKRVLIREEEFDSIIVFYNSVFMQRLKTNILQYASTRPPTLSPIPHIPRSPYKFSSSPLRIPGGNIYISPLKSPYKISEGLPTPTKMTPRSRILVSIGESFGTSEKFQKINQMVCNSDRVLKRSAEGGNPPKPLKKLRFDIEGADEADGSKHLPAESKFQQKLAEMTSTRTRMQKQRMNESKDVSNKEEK
Assay: immunoprecipitation of NPC lysates with pan Rb antibody, Western blot with E2F1 antibody, densitometry
Description: The primary antibodies were incubated with 100 μg of protein lysate at 40 C for 16 hr, the immune complexes were collected by incubation with 10 μl of Protein G beads for 1 hr at 40 C and centrifugation. The immunoprecipitated proteins were analyzed by standard immunoblot analysis. […] Detection was performed using anti-rabbit or anti-mouse HRP-linked secondary antibodies (Cell Signaling Technology, Beverly, Mass.) followed by Chemiluminescence (Millipore, Billerica, Mass.). When applicable, subcellular fractionation was performed using a commercially available kit (BioVision Inc. Mountain View, Calif.) following manufacturers instructions.
In proliferating cells, growth factor signaling promotes CDK-dependent phosphorylation of Rb to inhibit it from sequestering the G1 transcription factor E2F1 (Galderisi, U., et al., Oncogene. 22, 5208-19, 2003). To examine whether E2F1 is sequestered by hypophosphorylated Rb in β1−/− NPCs, we immunoprecipitated Rb from NPCs. In these experiments, NPC lysates were immunoprecipitated with pan Rb antibody, followed by Western blot with an E2F1 antibody and densitometry. […] AU, arbitrary units.

B1: E2F1 (other, mouse, UniProt Q61501 1-430, looked up)
chain: MAVAPAGGQHAPALEALLGAGALRLLDSSQIVIISTAPDVGAPQLPAAPPTGPRDSDVLLFATPQAPRPAPSAPRPALGRPPVKRRLDLETDHQYLAGSSGPFRGRGRHPGKGVKSPGEKSRYETSLNLTTKRFLELLSRSADGVVDLNWAAEVLKVQKRRIYDITNVLEGIQLIAKKSKNHIQWLGSHTMVGIGKRLEGLTQDLQQLQESEQQLDHLMHICTTQLQLLSEDSDTQRLAYVTCQDLRSIADPAEQMVIVIKAPPETQLQAVDSSETFQISLKSKQGPIDVFLCPEESADGISPGKTSCQETSSGEDRTADSGPAGPPPSPPSTSPALDPSQSLLGLEQEAVLPRMGHLRVPMEEDQLSPLVAADSLLEHVKEDFSGLLPGEFISLSPPHEALDYHFGLEEGEGIRDLFDCDFGDLTPLDF
notes: Endogenous protein co-immunoprecipitated with Rb; also called G1 transcription factor E2F1
In the case of B1, the “fold more E2F1 bound to Rb in β1-/- vs. wildtype NPCs” value is reported as 7.6 fold.

Reference: patent US20100221748A1 (WASHINGTON UNIVERSITY, published 2010)
